One assay deals with rats. The assay can be described thus: Analgesia in the tail flick (focal ray) test in rats, intravenous administration.
A further assay addresses human μ opiate receptor (Homo sapiens, UniProt P35372). The assay can be described thus: μ opiate receptor binding assay with [3H]-naloxone (WGA-SPA beads). Conditions: for Ki: read-out: Ki (μ) mean [μm], mean; for % inhibition (μ) [1 μM]: test concentration 1 μM.
Another assay deals with ORL1 receptor (Homo sapiens, UniProt P41146). As to the kind of experiment: ORL1 receptor binding assay with 3H-nociceptin/orphanin FQ (WGA-SPA beads). Conditions: for Ki: read-out: Ki (ORL1) mean, mean; for % inhibition (ORL1) [1 μM]: test concentration 1 μM.

Sequences of proteins named here, by UniProt entry; tags and fusion partners are left off.
UniProt P35372, whole entry: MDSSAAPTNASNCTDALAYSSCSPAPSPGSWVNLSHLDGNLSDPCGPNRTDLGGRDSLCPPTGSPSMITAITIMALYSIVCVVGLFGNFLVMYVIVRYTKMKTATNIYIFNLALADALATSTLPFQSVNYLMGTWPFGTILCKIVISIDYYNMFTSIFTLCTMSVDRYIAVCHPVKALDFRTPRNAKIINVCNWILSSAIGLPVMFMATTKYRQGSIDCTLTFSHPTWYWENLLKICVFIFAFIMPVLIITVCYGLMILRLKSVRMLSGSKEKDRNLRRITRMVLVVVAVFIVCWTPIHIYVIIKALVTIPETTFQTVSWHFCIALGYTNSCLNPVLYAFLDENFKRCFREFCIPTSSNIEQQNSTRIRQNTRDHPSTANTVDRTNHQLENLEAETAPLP
UniProt P41146, whole entry: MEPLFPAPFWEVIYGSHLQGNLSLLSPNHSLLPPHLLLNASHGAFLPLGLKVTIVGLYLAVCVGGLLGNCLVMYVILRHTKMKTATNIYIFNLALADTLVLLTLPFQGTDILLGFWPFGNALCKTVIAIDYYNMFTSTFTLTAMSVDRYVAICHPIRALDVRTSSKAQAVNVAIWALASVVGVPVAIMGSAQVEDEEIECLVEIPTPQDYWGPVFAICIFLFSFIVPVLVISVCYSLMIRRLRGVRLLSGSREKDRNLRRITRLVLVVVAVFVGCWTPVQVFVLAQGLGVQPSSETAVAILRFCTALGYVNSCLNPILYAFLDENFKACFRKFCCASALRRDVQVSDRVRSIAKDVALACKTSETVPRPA

Structures were worked out from names or drawings and are uncertain.

The values that follow come from patent US10202345B2, “Substituted azaspiro(4.5)decane derivatives” (priority 2014, dated 2019).

As for `CN(C)C1(c2ccccc2)CCC2(CC1)CC(=O)N(CCC1CCCO1)C2` (stereo not drawn), the “Tail flick rat, i.v. ED50 rat [μg/kg]” value in the assay with rats worked out at 6.6 µg/kg.
Take `Cc1ccc(C2(N(C)C)CCC3(CC2)CC(=O)N(CC2CCCC2)C3)s1` (single isomer, unassigned) [159]: at human μ opiate receptor, the Ki is 185 nM and the “% inhibition (μ) [1 μM]” value is given as 32.5%. Further, on ORL1 receptor, the Ki was found to be 91.5 nM and the “% inhibition (ORL1) [1 μM]” value is 31.5%.
In the case of `CN(C)C1(c2cccs2)CCC2(CC1)CNC(=O)C2` (single isomer, unassigned) [23], at human μ opiate receptor, the inhibition constant (Ki) worked out at 50 nM and the “% inhibition (μ) [1 μM]” value is 84.5%. Moreover, at ORL1 receptor, the Ki came to 68 nM and the “% inhibition (ORL1) [1 μM]” value was found to be 58%.

The Ki is a dissociation constant, usually derived from enzyme kinetics or from competition with a known ligand.
